Results on three molecules are retold here after publication PMC8028314, “Sae2 and Rif2 regulate MRX endonuclease activity at DNA double-strand breaks in opposite manners” (Cell Reports, 2021).

Results are given in words; binding and its absence hold for the method and conditions named. Some entries that bind do so weakly or less than the wild type. Tags and fused reporters may be left off the sequences shown.

Assay [1] addresses T1, MBP-Rif2-his (S. cerevisiae) (UniProt Q06208).
T1 sequence: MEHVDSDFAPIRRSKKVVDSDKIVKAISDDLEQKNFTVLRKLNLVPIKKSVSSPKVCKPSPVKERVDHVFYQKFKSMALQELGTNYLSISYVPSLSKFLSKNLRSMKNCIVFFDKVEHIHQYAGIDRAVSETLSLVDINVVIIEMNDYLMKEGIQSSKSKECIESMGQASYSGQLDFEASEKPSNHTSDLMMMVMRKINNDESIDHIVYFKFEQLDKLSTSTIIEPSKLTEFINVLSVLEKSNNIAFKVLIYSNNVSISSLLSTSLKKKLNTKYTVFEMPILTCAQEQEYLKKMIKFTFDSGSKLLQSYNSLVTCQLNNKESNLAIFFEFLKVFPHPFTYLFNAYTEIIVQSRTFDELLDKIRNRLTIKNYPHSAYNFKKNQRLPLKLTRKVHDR
Kind of assay: pull-down; MBP-Rif2-his from Sf9 lysate bound to amylose resin, washed with 1 M then 0.1 M NaCl buffer (50 mM Tris-HCl pH 7.5, 0.2% NP40, 2 mM EDTA); recombinant MR variants (1 ug) added, 1 h at 4°C; washed with 0.1 M NaCl buffer; eluted with 20 mM maltose and cleaved with PreScission protease; Ponceau (Rif2) and western blots (anti-Rad50, anti-His); both purified. (A western blot detects proteins with antibodies after separation by electrophoresis.)

Assay [2] addresses T2, His-tagged Mre11 (S. cerevisiae) (UniProt P32829).
T2 sequence: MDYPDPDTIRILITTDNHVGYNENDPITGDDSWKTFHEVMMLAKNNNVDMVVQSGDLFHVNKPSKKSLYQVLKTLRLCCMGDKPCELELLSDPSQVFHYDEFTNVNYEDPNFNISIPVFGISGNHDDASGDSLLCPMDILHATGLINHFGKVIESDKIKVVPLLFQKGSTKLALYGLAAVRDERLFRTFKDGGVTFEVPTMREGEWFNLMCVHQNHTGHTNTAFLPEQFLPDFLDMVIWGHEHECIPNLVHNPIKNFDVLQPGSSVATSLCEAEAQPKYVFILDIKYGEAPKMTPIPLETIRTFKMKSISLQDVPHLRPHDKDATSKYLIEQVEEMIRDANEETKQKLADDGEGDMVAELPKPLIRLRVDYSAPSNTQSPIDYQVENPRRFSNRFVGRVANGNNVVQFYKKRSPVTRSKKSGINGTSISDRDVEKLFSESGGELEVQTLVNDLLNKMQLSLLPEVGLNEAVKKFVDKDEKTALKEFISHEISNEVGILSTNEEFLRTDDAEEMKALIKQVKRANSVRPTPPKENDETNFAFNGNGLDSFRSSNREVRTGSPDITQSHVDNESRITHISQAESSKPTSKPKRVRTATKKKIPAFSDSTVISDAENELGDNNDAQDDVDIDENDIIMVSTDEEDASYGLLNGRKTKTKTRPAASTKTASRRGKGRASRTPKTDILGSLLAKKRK
Kind of assay: co-purification; His-tagged Mre11 and untagged Rad50 expressed in Sf9 cells; complex purified by NiNTA affinity chromatography, then HiTrap SP HP and HiTrap Q HP ion-exchange chromatography.

Regarding “Mre11-Rad50-N18S mutant complex (from UniProt P32829 1-692; P12753 1-1312)”, the binding entry in assay [1] is listed as “binds weakly”.

B1: untagged Rad50 (protein, UniProt P12753 1-1312)
chain: MSAIYKLSIQGIRSFDSNDRETIEFGKPLTLIVGMNGSGKTTIIECLKYATTGDLPPNSKGGVFIHDPKITGEKDIRAQVKLAFTSANGLNMIVTRNIQLLMKKTTTTFKTLEGQLVAINNSGDRSTLSTRSLELDAQVPLYLGVPKAILEYVIFCHQEDSLWPLSEPSNLKKKFDEIFQAMKFTKALDNLKSIKKDMSVDIKLLKQSVEHLKLDKDRSKAMKLNIHQLQTKIDQYNEEVSEIESQLNEITEKSDKLFKSNQDFQKILSKVENLKNTKLSISDQVKRLSNSIDILDLSKPDLQNLLANFSKVLMDKNNQLRDLETDISSLKDRQSSLQSLSNSLIRRQGELEAGKETYEKNRNHLSSLKEAFQHKFQGLSNIENSDMAQVNHEMSQFKAFISQDLTDTIDQFAKDIQLKETNLSDLIKSITVDSQNLEYNKKDRSKLIHDSEELAEKLKSFKSLSTQDSLNHELENLKTYKEKLQSWESENIIPKLNQKIEEKNNEMIILENQIEKFQDRIMKTNQQADLYAKLGLIKKSINTKLDELQKITEKLQNDSRIRQVFPLTQEFQRADLEMDFQKLFINMQKNIAINNKKMHELDRRYTNALYNLNTIEKDLQDNQKSKEKVIQLLSENLPEDCTIDEYNDVLEETELSYKTALENLKMHQTTLEFNRKALEIAERDSCCYLCSRKFENESFKSKLLQELKTKTDANFEKTLKDTVQNEKEYLHSLRLLEKHIITLNSINEKIDNSQKCLEKAKEETKTSKSKLDELEVDSTKLKDEKELAESEIRPLIEKFTYLEKELKDLENSSKTISEELSIYNTSEDGIQTVDELRDQQRKMNDSLRELRKTISDLQMEKDEKVRENSRMINLIKEKELTVSEIESSLTQKQNIDDSIRSKRENINDIDSRVKELEARIISLKNKKDEAQSVLDKVKNERDIQVRNKQKTVADINRLIDRFQTIYNEVVDFEAKGFDELQTTIKELELNKAQMLELKEQLDLKSNEVNEEKRKLADSNNEEKNLKQNLELIELKSQLQHIESEISRLDVQNAEAERDKYQEESLRLRTRFEKLSSENAGKLGEMKQLQNQIDSLTHQLRTDYKDIEKNYHKEWVELQTRSFVTDDIDVYSKALDSAIMKYHGLKMQDINRIIDELWKRTYSGTDIDTIKIRSDEVSSTVKGKSYNYRVVMYKQDVELDMRGRCSAGQKVLASIIIRLALSETFGANCGVIALDEPTTNLDEENIESLAKSLHNIINMRRHQKNFQLIVITHDEKFLGHMNAAAFTDHFFKVKRDDRQKSQIEWVDINRVTY
For the molecule B1, the binding entry in assay [2] was “binds”.

B2: untagged Rad50-N18S (protein, UniProt P12753 1-1312)
chain: MSAIYKLSIQGIRSFDSSDRETIEFGKPLTLIVGMNGSGKTTIIECLKYATTGDLPPNSKGGVFIHDPKITGEKDIRAQVKLAFTSANGLNMIVTRNIQLLMKKTTTTFKTLEGQLVAINNSGDRSTLSTRSLELDAQVPLYLGVPKAILEYVIFCHQEDSLWPLSEPSNLKKKFDEIFQAMKFTKALDNLKSIKKDMSVDIKLLKQSVEHLKLDKDRSKAMKLNIHQLQTKIDQYNEEVSEIESQLNEITEKSDKLFKSNQDFQKILSKVENLKNTKLSISDQVKRLSNSIDILDLSKPDLQNLLANFSKVLMDKNNQLRDLETDISSLKDRQSSLQSLSNSLIRRQGELEAGKETYEKNRNHLSSLKEAFQHKFQGLSNIENSDMAQVNHEMSQFKAFISQDLTDTIDQFAKDIQLKETNLSDLIKSITVDSQNLEYNKKDRSKLIHDSEELAEKLKSFKSLSTQDSLNHELENLKTYKEKLQSWESENIIPKLNQKIEEKNNEMIILENQIEKFQDRIMKTNQQADLYAKLGLIKKSINTKLDELQKITEKLQNDSRIRQVFPLTQEFQRADLEMDFQKLFINMQKNIAINNKKMHELDRRYTNALYNLNTIEKDLQDNQKSKEKVIQLLSENLPEDCTIDEYNDVLEETELSYKTALENLKMHQTTLEFNRKALEIAERDSCCYLCSRKFENESFKSKLLQELKTKTDANFEKTLKDTVQNEKEYLHSLRLLEKHIITLNSINEKIDNSQKCLEKAKEETKTSKSKLDELEVDSTKLKDEKELAESEIRPLIEKFTYLEKELKDLENSSKTISEELSIYNTSEDGIQTVDELRDQQRKMNDSLRELRKTISDLQMEKDEKVRENSRMINLIKEKELTVSEIESSLTQKQNIDDSIRSKRENINDIDSRVKELEARIISLKNKKDEAQSVLDKVKNERDIQVRNKQKTVADINRLIDRFQTIYNEVVDFEAKGFDELQTTIKELELNKAQMLELKEQLDLKSNEVNEEKRKLADSNNEEKNLKQNLELIELKSQLQHIESEISRLDVQNAEAERDKYQEESLRLRTRFEKLSSENAGKLGEMKQLQNQIDSLTHQLRTDYKDIEKNYHKEWVELQTRSFVTDDIDVYSKALDSAIMKYHGLKMQDINRIIDELWKRTYSGTDIDTIKIRSDEVSSTVKGKSYNYRVVMYKQDVELDMRGRCSAGQKVLASIIIRLALSETFGANCGVIALDEPTTNLDEENIESLAKSLHNIINMRRHQKNFQLIVITHDEKFLGHMNAAAFTDHFFKVKRDDRQKSQIEWVDINRVTY
In the case of B2, the binding result in assay [2] is recorded as “binds”.
